Data published in patent US20040009920A1.
These are yes or no findings as the source states them, for the method shown. Some results given as binding are weak or reduced against the parent protein; the word gives no strength.

Amino acid sequences for entries named in this document (tags omitted). A change or cut given only in a name is not applied to a line headed by its entry. Chains listed by the source or under a name are the forms on record and can include a tag or linker.
fibronectin (P02751, form named): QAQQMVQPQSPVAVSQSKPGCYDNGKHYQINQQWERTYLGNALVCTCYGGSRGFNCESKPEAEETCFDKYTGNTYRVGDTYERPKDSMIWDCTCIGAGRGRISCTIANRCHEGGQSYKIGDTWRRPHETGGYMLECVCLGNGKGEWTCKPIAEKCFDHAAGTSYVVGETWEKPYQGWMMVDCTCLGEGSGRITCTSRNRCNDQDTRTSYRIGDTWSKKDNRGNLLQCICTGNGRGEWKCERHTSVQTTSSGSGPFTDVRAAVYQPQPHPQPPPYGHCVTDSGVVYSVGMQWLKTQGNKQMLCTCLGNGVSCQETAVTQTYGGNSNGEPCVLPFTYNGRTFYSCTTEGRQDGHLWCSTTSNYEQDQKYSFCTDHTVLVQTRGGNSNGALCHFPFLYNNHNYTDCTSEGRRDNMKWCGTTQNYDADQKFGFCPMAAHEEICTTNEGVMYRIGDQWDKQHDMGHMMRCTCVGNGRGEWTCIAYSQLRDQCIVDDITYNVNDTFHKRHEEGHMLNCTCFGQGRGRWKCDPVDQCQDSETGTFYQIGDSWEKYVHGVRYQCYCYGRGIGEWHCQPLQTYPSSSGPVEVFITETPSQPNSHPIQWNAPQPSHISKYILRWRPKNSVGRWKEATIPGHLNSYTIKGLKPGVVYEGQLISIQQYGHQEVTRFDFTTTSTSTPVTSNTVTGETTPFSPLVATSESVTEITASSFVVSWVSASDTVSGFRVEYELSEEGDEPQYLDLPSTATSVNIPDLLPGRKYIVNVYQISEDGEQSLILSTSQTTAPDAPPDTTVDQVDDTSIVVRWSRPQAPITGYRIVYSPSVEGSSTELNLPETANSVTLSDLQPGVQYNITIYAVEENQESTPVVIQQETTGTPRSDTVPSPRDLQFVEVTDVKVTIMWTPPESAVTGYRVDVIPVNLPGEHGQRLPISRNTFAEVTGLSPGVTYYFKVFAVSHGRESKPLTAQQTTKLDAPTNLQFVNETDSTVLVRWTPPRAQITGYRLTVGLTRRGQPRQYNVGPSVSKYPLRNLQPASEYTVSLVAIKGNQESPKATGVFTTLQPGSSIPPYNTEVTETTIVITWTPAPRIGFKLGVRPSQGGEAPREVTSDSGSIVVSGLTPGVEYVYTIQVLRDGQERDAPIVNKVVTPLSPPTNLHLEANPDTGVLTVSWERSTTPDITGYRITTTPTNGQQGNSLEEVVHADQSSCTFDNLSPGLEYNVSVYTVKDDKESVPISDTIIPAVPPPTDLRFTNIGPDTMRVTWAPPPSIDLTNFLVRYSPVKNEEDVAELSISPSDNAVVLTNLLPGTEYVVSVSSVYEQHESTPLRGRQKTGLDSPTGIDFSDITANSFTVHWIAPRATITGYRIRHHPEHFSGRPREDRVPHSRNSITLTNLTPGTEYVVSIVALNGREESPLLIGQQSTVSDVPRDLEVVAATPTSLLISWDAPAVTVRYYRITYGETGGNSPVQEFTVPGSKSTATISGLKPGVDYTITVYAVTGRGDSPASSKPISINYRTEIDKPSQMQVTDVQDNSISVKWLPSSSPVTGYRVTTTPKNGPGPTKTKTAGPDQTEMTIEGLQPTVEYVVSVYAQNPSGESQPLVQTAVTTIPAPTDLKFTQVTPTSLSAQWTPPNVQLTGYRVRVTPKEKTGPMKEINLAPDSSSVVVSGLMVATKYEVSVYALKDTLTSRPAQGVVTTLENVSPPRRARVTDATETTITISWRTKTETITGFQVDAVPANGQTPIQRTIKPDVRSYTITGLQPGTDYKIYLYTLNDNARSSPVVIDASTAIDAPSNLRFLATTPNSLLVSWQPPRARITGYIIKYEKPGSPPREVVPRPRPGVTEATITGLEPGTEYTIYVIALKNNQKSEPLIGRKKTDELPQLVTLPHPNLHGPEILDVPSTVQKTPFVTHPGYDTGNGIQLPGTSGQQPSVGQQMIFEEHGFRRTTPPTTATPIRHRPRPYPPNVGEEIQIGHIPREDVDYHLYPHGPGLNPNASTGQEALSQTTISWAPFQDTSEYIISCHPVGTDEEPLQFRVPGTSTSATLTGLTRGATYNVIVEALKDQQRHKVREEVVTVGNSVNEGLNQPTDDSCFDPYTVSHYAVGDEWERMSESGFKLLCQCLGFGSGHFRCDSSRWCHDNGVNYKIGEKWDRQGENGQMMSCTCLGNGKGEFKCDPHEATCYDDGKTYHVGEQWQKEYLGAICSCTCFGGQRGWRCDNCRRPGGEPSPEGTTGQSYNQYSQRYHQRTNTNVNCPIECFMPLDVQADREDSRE

How the values were obtained:
fibronectin (human) [1] = target: fibronectin (human) (UniProt P02751); test: turbidity (OD 590 nm) 3 hours after mixing with fibronectin in PBS, final concentration 0.5 mg/ml
fibronectin (human) [2] = target: fibronectin (human) (UniProt P02751); test: turbidity of mixed protein solutions (optical density at 590 nm)

Binder: ANIKLSVQMKLFKRHIKWKIIVKLNDGRELSLD [anginex]
- binding (fibronectin (human) [1]): binds
- binding (fibronectin (human) [2]): binds
